In paper PMC4684349:
Results are given in words; binding and its absence hold for the method and conditions named. In cells and extracts the contact can be indirect. These calls come from enrichment with a bait or labelling near it, and not all partners need be listed. Where a sequence is shown, tags or fusion partners need not be part of it.

Chains of the proteins cited; added tags and fusions are not shown. Residues count along the entry.
UniProt P39522, residues 21-585: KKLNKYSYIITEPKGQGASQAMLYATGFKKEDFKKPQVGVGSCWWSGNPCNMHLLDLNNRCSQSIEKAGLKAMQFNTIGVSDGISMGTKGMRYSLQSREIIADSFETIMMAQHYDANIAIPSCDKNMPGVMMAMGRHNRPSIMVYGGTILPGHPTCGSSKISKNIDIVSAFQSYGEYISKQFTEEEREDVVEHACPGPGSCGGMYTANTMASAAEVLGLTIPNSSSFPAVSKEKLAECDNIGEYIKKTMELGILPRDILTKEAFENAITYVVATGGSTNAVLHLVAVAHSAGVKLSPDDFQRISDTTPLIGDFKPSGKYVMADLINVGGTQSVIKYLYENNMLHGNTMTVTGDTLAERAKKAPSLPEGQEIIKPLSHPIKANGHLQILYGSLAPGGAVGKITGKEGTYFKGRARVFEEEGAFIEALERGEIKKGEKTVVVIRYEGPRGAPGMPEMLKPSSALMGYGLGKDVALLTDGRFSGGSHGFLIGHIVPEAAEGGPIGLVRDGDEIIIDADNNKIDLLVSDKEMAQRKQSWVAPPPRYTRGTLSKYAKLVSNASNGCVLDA

T1: Bat1-FLAG (S. cerevisiae) (UniProt P38891)
T1 sequence: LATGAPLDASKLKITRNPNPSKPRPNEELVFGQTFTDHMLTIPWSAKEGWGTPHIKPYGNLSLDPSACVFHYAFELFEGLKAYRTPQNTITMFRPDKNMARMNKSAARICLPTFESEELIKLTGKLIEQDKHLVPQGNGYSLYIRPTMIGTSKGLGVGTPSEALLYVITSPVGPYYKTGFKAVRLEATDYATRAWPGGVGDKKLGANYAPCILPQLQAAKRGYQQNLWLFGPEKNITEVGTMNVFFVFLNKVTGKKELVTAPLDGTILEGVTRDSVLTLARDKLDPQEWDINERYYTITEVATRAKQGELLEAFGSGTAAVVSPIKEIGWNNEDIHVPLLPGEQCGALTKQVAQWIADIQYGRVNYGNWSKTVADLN

B1: Leu4 (enzyme, UniProt P06208 1-619)
chain: MVKESIIALAEHAASRASRVIPPVKLAYKNMLKDPSSKYKPFNAPKLSNRKWPDNRITRAPRWLSTDLRDGNQSLPDPMSVEQKKEYFHKLVNIGFKEIEVSFPSASQTDFDFTRYAVENAPDDVSIQCLVQSREHLIKRTVEALTGAKKATIHTYLATSDMFREIVFNMSREEAISKAVEATKLVRKLTKDDPSQQATRWSYEFSPECFSDTPGEFAVEICEAVKKAWEPTEENPIIFNLPATVEVASPNVYADQIEYFATHITEREKVCISTHCHNDRGCGVAATELGMLAGADRVEGCLFGNGERTGNVDLVTVAMNMYTQGVSPNLDFSDLTSVLDVVERCNKIPVSQRAPYGGDLVVCAFSGSHQDAIKKGFNLQNKKRAQGETQWRIPYLPLDPKDIGRDYEAVIRVNSQSGKGGAAWVILRSLGLDLPRNMQIEFSSAVQDHADSLGRELKSDEISKLFKEAYNYNDEQYQAISLVNYNVEKFGTERRVFTGQVKVGDQIVDIEGTGNGPISSLVDALSNLLNVRFAVANYTEHSLGSGSSTQAASYIHLSYRRNADNEKAYKWGVGVSEDVGDSSVRAIFATINNIIHSGDVSIPSLAEVEGKNAAASGSA
B2: Ilv5 (enzyme, UniProt P06168 48-395)
chain: LKQINFGGTVETVYERADWPREKLLDYFKNDTFALIGYGSQGYGQGLNLRDNGLNVIIGVRKDGASWKAAIEDGWVPGKNLFTVEDAIKRGSYVMNLLSDAAQSETWPAIKPLLTKGKTLYFSHGFSPVFKDLTHVEPPKDLDVILVAPKGSGRTVRSLFKEGRGINSSYAVWNDVTGKAHEKAQALAVAIGSGYVYQTTFEREVNSDLYGERGCLMGGIHGMFLAQYDVLRENGHSPSEAFNETVEEATQSLYPLIGKYGMDYMYDACSTTARRGALDWYPIFKNALKPVFQDLYESTKNGTETKRSLEFNSQPDYREKLEKELDTIRNMEIWKVGKEVRKLRPENQ
B3: Ape2 (enzyme, UniProt P32454 53-952)
chain: NVMWKQSKLTPPRFVKIMNRRPLFTETSHACAKCQKTSQLLNKTPNREILPDNVVPLHYDLTVEPDFKTFKFEGSVKIELKINNPAIDTVTLNTVDTDIHSAKIGDVTSSEIISEEEQQVTTFAFPKGTMSSFKGNAFLDIKFTGILNDNMAGFYRAKYEDKLTGETKYMATTQMEPTDARRAFPCFDEPNLKASFAITLVSDPSLTHLSNMDVKNEYVKDGKKVTLFNTTPKMSTYLVAFIVAELKYVESKNFRIPVRVYATPGNEKHGQFAADLTAKTLAFFEKTFGIQYPLPKMDNVAVHEFSAGAMENWGLVTYRVVDLLLDKDNSTLDRIQRVAEVVQHELAHQWFGNLVTMDWWEGLWLNEGFATWMSWYSCNEFQPEWKVWEQYVTDTLQHALSLDSLRSSHPIEVPVKKADEINQIFDAISYSKGASLLRMISKWLGEETFIKGVSQYLNKFKYGNAKTEDLWDALADASGKDVRSVMNIWTKKVGFPVISVSEDGNGKITFRQNRYLSTADVKPDEDKTIYPVFLALKTKNGVDSSVVLSERSKTIELEDPTFFKVNSEQSGIYITSYTDERWAKLGQQADLLSVEDRVGLVADVKTLSASGYTSTTNFLNLVSKWNNEKSFVVWDQIINSISSMKSTWLFEPKETQDALDNFTKQLISGMTHHLGWEFKSSDSFSTQRLKVTMFGAACAARDADVEKAALKMFTDYCSGNKEAIPALIKPIVFNTVARVGGAENYEKVYKIYLDPISNDEKLAALRSLGRFKEPKLLERTLGYLFDGTVLNQDIYIPMQGMRAHQEGVEALWNWVKKNWDELVKRLPPGLSMLGSVVTLGTSGFTSMQKIDEIKKFFATKSTKGFDQSLAQSLDTITSKAQWVNRDRDVVNKYLKENGYY
B4: Aco1 (enzyme, UniProt P19414 17-778)
chain: ATVSNLTRDSKVNQNLLEDHSFINYKQNVETLDIVRKRLNRPFTYAEKILYGHLDDPHGQDIQRGVSYLKLRPDRVACQDATAQMAILQFMSAGLPQVAKPVTVHCDHLIQAQVGGEKDLKRAIDLNKEVYDFLASATAKYNMGFWKPGSGIIHQIVLENYAFPGALIIGTDSHTPNAGGLGQLAIGVGGADAVDVMAGRPWELKAPKILGVKLTGKMNGWTSPKDIILKLAGITTVKGGTGKIVEYFGDGVDTFSATGMGTICNMGAEIGATTSVFPFNKSMIEYLEATGRGKIADFAKLYHKDLLSADKDAEYDEVVEIDLNTLEPYINGPFTPDLATPVSKMKEVAVANNWPLDVRVGLIGSCTNSSYEDMSRSASIVKDAAAHGLKSKTIFTVTPGSEQIRATIERDGQLETFKEFGGIVLANACGPCIGQWDRRDIKKGDKNTIVSSYNRNFTSRNDGNPQTHAFVASPELVTAFAIAGDLRFNPLTDKLKDKDGNEFMLKPPHGDGLPQRGYDAGENTYQAPPADRSTVEVKVSPTSDRLQLLKPFKPWDGKDAKDMPILIKAVGKTTTDHISMAGPWLKYRGHLENISNNYMIGAINAENKKANCVKNVYTGEYKGVPDTARDYRDQGIKWVVIGDENFGEGSSREHAALEPRFLGGFAIITKSFARIHETNLKKQGLLPLNFKNPADYDKINPDDRIDILGLAELAPGKPVTMRVHPKNGKPWDAVLTHTFNDEQIEWFKYGSALNKIKADEKK

What follows are molecules tested against T1, Bat1-FLAG (S. cerevisiae) (assay: affinity purification with mass spectrometry; Bat1-FLAG expressed in the bat1 mutant strain and immunoprecipitated by FLAG; co-immunoprecipitated proteins identified by LC-MS/MS; control immunoprecipitates from FLAG-untagged cells).
“Ilv3 (from UniProt P39522 21-585) (enzyme)” was tested, and the binding was “binds”.
With B1 the binding was “binds”.
In the case of B2, the binding is reported as “binds”.
In the case of B3, the binding is reported as “binds”.
With B4 the binding was “binds”.
